PubChem BioAssay AID1224830 – NIAID, 2016
Aim: 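Genes whose knock-down alters the TNF-alpha reporter response to LPS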 (primary screen). System: human THP-1 monocytic leukaemia cells, TNF dual-luciferase reporter clone, PMA-differentiated to macrophage-like cells. Reagent: siRNA pool against human genes, 50 nM. Duration: LPS for 4 h, given about 3 days after siRNA transfection. Conditions: bacterial LPS (TLR4 ligand), 10 ng/ml. Read-out: 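TNF firefly reporter luminescence divided by renilla, normalised to the plate median, then turned into a robust z-score for each replicate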. Direction: TNF reporter robust z-score: higher = stronger TNF reporter response to LPS. Hit rule: 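Each well counts as active if its z-score is over 2.8 or under -1.5; controls are left without a call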.
In all, the deposit lists about 18,000 reagents; shown is an unselected part. About 2,900 of them (16%) were called active. 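Calls are made per well; low scores hint the gene aids the LPS response, high scores that it dampens it.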 A number with no mark means an inactive call. Repeated entries: four replicate wells of each siRNA pool.

gene | TNF reporter robust z-score
LRRC66 (leucine rich repeat containing 66) | -0.29
LRRC66 (leucine rich repeat containing 66) | -0.53
LRRC66 (leucine rich repeat containing 66) | -0.39
LRRC66 (leucine rich repeat containing 66) | -0.71
SPRY1 (sprouty RTK signaling antagonist 1) | -0.47
SPRY1 (sprouty RTK signaling antagonist 1) | 1.77
SPRY1 (sprouty RTK signaling antagonist 1) | 0.46
SPRY1 (sprouty RTK signaling antagonist 1) | 1.75
CTDSP1 (CTD small phosphatase 1) | -1.57 (active)
CTDSP1 (CTD small phosphatase 1) | -1.52 (active)
CTDSP1 (CTD small phosphatase 1) | -1.34
SPATA31G1 (SPATA31 subfamily G member 1) | -0.77
SPATA31G1 (SPATA31 subfamily G member 1) | -0.46
SPATA31G1 (SPATA31 subfamily G member 1) | -0.32
SPATA31G1 (SPATA31 subfamily G member 1) | -0.58
C3P1 (complement 3 precursor pseudogene) | -0.9
C3P1 (complement 3 precursor pseudogene) | -0.47
C3P1 (complement 3 precursor pseudogene) | -0.08
C3P1 (complement 3 precursor pseudogene) | 0.01
ANOS1 (anosmin 1) | 0.65
ANOS1 (anosmin 1) | 1.56
ANOS1 (anosmin 1) | 0.41
ANOS1 (anosmin 1) | 1.85
MPHOSPH9 (M-phase phosphoprotein 9) | 0.65
MPHOSPH9 (M-phase phosphoprotein 9) | 1.01
MPHOSPH9 (M-phase phosphoprotein 9) | 0.51
MPHOSPH9 (M-phase phosphoprotein 9) | -0.4
STXBP6 (syntaxin binding protein 6) | -0.01
STXBP6 (syntaxin binding protein 6) | 0.81
STXBP6 (syntaxin binding protein 6) | 1.64
STXBP6 (syntaxin binding protein 6) | 0.21
SLC52A2 | 0.8
SLC52A2 | 0.71
SLC52A2 | 0.28
SLC52A2 | 0.75
MYRF (myelin regulatory factor) | 2.84 (active)
MYRF (myelin regulatory factor) | 0.81
MYRF (myelin regulatory factor) | 1
MYRF (myelin regulatory factor) | 1.38
PANK4 (pantothenate kinase 4 (inactive)) | -2.15 (active)
PANK4 (pantothenate kinase 4 (inactive)) | -2 (active)
PANK4 (pantothenate kinase 4 (inactive)) | -1.95 (active)
PANK4 (pantothenate kinase 4 (inactive)) | -1.7 (active)
ERCC4 (ERCC excision repair 4, endonuclease catalytic subunit) | -0.7
ERCC4 (ERCC excision repair 4, endonuclease catalytic subunit) | 0.6
ERCC4 (ERCC excision repair 4, endonuclease catalytic subunit) | -0.18
ERCC4 (ERCC excision repair 4, endonuclease catalytic subunit) | 0.18
RBMS3 (RNA binding motif single stranded interacting protein 3) | -0.98
RBMS3 (RNA binding motif single stranded interacting protein 3) | -0.87
RBMS3 (RNA binding motif single stranded interacting protein 3) | -1.15
RBMS3 (RNA binding motif single stranded interacting protein 3) | -0.33
SLC26A4 | -0.57
SLC26A4 | -1.07
SLC26A4 | -1.38
SLC26A4 | -0.86
IKZF3 (IKAROS family zinc finger 3) | 0.32
IKZF3 (IKAROS family zinc finger 3) | 4.08 (active)
IKZF3 (IKAROS family zinc finger 3) | -0.39
IKZF3 (IKAROS family zinc finger 3) | 0.71
TMEM31 (transmembrane protein 31) | -0.62
TMEM31 (transmembrane protein 31) | -0.54
TMEM31 (transmembrane protein 31) | -0.72
TMEM31 (transmembrane protein 31) | -0.18
NOVA2 (NOVA alternative splicing regulator 2) | 0.09
NOVA2 (NOVA alternative splicing regulator 2) | 1.84
NOVA2 (NOVA alternative splicing regulator 2) | 0.2
NOVA2 (NOVA alternative splicing regulator 2) | 1.03
GRAMD2A (GRAM domain containing 2A) | -1.42
GRAMD2A (GRAM domain containing 2A) | -1.67 (active)
GRAMD2A (GRAM domain containing 2A) | -1.1
GRAMD2A (GRAM domain containing 2A) | -0.59
NUP50 (nucleoporin 50) | -0.12
NUP50 (nucleoporin 50) | -0.46
NUP50 (nucleoporin 50) | -0.55
NUP50 (nucleoporin 50) | -0.45

In a second layout: results already given.
{"gene":"NOVA2 (NOVA alternative splicing regulator 2)","TNF reporter robust z-score":1.84}
{"gene":"NOVA2 (NOVA alternative splicing regulator 2)","TNF reporter robust z-score":0.2}
{"gene":"NOVA2 (NOVA alternative splicing regulator 2)","TNF reporter robust z-score":1.03}
{"gene":"GRAMD2A (GRAM domain containing 2A)","TNF reporter robust z-score":-1.42}
{"gene":"GRAMD2A (GRAM domain containing 2A)","TNF reporter robust z-score":"-1.67 (active)"}
{"gene":"GRAMD2A (GRAM domain containing 2A)","TNF reporter robust z-score":-1.1}
{"gene":"GRAMD2A (GRAM domain containing 2A)","TNF reporter robust z-score":-0.59}
{"gene":"NUP50 (nucleoporin 50)","TNF reporter robust z-score":-0.12}
{"gene":"NUP50 (nucleoporin 50)","TNF reporter robust z-score":-0.46}
